Source: PubChem BioAssay AID504834 (National Center for Advancing Translational Sciences (NCATS), 2011)
The campaign covered roughly 320,000 compounds. About 22,000 (6.9%) were called active. The inconclusive results got no clear call from the source; some entries with a clear call stand among them for comparison. Calls come from the whole dose curve; as a rule, active = well fitted inhibition curve with a large enough effect; inconclusive = small, poorly fitted or top-dose-only effect, or another doubt; inactive = no such curve, though single readings can be large or run the other way. Potencies beside an inconclusive call are fits to weak or partial responses and may not hold up.

Experiment: Primary qHTS for delayed death inhibitors of the malarial parasite plastid, 96 hour incubation
Settings: P. falciparum luciferase reporter growth; series mostly up to 28.7 µM
Summary of the method: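 Readout is luminescence from an integrated firefly luciferase in P. falciparum. Red cells, 2% hematocrit and 0.05% parasitemia final, were cultured with compound through two parasite generations (96 hours) at 37 C, 5% CO2.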
Potency is the fitted concentration of half-maximal effect.

Structure (SMILES) | Potency
S=C(NCCC1=CCCCC1)Nc1ccc(Cl)cc1 | inconclusive: 10.4 µM [inhibitor, single point]
Cc1ccc(NC(=S)NNC(C)(C)C)cc1 | active: 5.86 µM
Cc1ccc2nsnc2c1S(=O)(=O)N1CCN(C)CC1 | inactive
O=C(Nc1c(C(=O)N2CCC(N3CCCCC3)CC2)oc2ccccc12)c1c(F)cccc1F | inconclusive: 18.5 µM [inhibitor, single point]
CCN(CC)c1ccc2cc(/C(N)=N/NC(=O)c3cccs3)c(=O)oc2c1 | inactive
CC(C(=O)Nc1ccncc1)(c1ccccc1)c1ccccc1 | active: 10.4 µM
Cc1cccc(NC(=O)C2CCCN2S(=O)(=O)c2cccc3cccnc23)c1 (configuration not stated) | inconclusive: 0.0037 µM [inhibitor, full curve, poor fit]
Cc1sc2ncnc(OCC(=O)N3CCN(C(=O)c4ccco4)CC3)c2c1C | inactive
CCOc1cc(C(=O)N2CCC(CC3CC(c4cccc(Br)c4)=NO3)(C(=O)NCC3CCCCC3)CC2)cc(OCC)c1OCC (configuration not stated) | inconclusive: 0.37 µM [inhibitor, full curve, poor fit]
N#Cc1c(C(F)(F)F)cc(-c2ccccc2)nc1SCC(=O)Nc1sc2c(c1C#N)CCC2 | active: 11.7 µM
O=C(CCN1CCCCC1)N=Nc1c(O)[nH]c2ccccc12 | inconclusive: 13.1 µM [inhibitor, partial curve, poor fit]
CC(OC(=O)CCc1cc(C(C)(C)C)c(O)c(C(C)(C)C)c1)C(=O)NC1CC1 (configuration not stated) | active: 0.657 µM
COc1cccc(-c2nnc(SCc3nc4ccccc4s3)n2C)c1 | inconclusive: 18.5 µM [inhibitor, single point]
CCC1(CC)NC(=O)N(CC(=O)N2CCN(c3ccccc3F)CC2)C1=O | inactive
Cc1ccc[n+](CC(=O)c2ccc(-c3ccccc3)cc2)c1 | inconclusive: 16.5 µM [inhibitor, single point]
CC(=O)NN1C(=O)c2ccccc2NC1c1ccco1 (configuration not stated) | inconclusive: 9.28 µM [inhibitor, single point]
Cc1cc(Nc2cc(Cl)cc(Cl)c2)nc(N)n1 | active: 2.33 µM
COC(=O)c1c(-c2c(Cl)cccc2Cl)noc1NC(=O)NN1CCCCC1 | active: 0.262 µM
O=C(C1CCN(c2ccc(N3CCOCC3)nn2)CC1)N1CCc2ccccc2C1 | inconclusive: 18.5 µM [inhibitor, single point]
O=C(Cn1cnc(S(=O)(=O)N2CCCC2)c1)Nc1ccccc1 | inconclusive: 18.5 µM [inhibitor, single point]
C/C=N\NC(=O)COc1cc(C)ccc1C | inactive
Cc1ccc(C)c(N2CCN(CCCc3ccccc3)CC2)c1 | inconclusive: 18.5 µM [inhibitor, single point]
O=C(Nc1ccc2oc(-c3ccncc3)nc2c1)c1ccccc1F | inconclusive: 0.928 µM [inhibitor, partial curve, poor fit]
CCOC(=O)CN1C(=O)N(CC(=O)OCC)C(c2ccccc2)(c2ccccc2)C1=O | inconclusive: 3.7 µM [inhibitor, single point]

Structure (SMILES) | Potency
CCc1nc(SCC(=O)NNC(=O)c2ccc(OC)cc2)c2ccccc2n1 | inconclusive: 18.5 µM [inhibitor, single point]
CCCN(CCC)Cc1c(C(=O)N/N=C/C(C)=C\c2ccccc2)nnn1-c1nonc1N | inconclusive: 10.4 µM [inhibitor, single point]
Cc1cc(C)c2c(c1)-c1cc(C)nn1C(c1cccnc1)N2 (configuration not stated) | inactive
O=C(Nc1cnn(Cc2ccccc2)c1)NC12CC3CC(CC(C3)C1)C2 | inconclusive: 20.8 µM [inhibitor, partial curve, poor fit]
COc1ccc(CNC(=O)COC(=O)c2ccc(C)c(S(=O)(=O)N3CCOCC3)c2)cc1OC | inactive
O=C(Nc1ccc(F)c(F)c1)c1oc2ccccc2c1NC(=O)C1CCCO1 (configuration not stated) | inconclusive: 4.15 µM [inhibitor, partial curve, poor fit]
COc1cc(NC(=S)NCCc2ccc(S(N)(=O)=O)cc2)c(OC)cc1Cl | inconclusive: 18.5 µM [inhibitor, single point]
CCc1nnc(NC(=O)CSc2nc3[nH]ncc3c(=O)[nH]2)s1 | inactive
Cc1ccc(N)c2c1OCCC2=O | inactive
O=c1cc(CO)oc(C(Nc2ccccn2)c2ccsc2)c1O (configuration not stated) | inactive
Cc1nn(C)c(C)c1S(=O)(=O)N(CC(=O)Nc1ccc2c(c1)OCO2)c1ccc(C(C)C)cc1 | inconclusive: 18.5 µM [inhibitor, single point]
C=CCNC(=S)N/N=C/c1ccc(C(C)(C)C)cc1 | inconclusive: 18.5 µM [inhibitor, single point]
CCC(=O)c1ccc(OCC(=O)OCC(=O)c2c(N)n(C)c(=O)n(C)c2=O)cc1 | inactive
COc1ccc(NC(=O)CN(C)C(=O)c2cccc(S(=O)(=O)Nc3ccccc3Cl)c2)cc1 | inconclusive: 16.5 µM [inhibitor, single point]
COc1ccccc1C1CCN(Cc2cccc([N+](=O)[O-])c2)CC1 | inconclusive: 18.5 µM [inhibitor, single point]
Cc1ccc(N=Nc2c(N)nn3c(C)cc(C)nc23)cc1 | inactive
CC(=O)Oc1ccc(N(C(C)=O)S(=O)(=O)c2cc([N+](=O)[O-])ccc2C)cc1 | inconclusive: 18.5 µM [inhibitor, single point]
N#C/C(=C\c1ccc(N2CCOCC2)o1)C(=O)Nc1ccc(O)cc1 | inactive
COC(=O)c1ccc2c(=O)[nH]c(CSc3nc(C)cs3)nc2c1 | inactive
CCCCn1c(N)c(N(CC)C(=O)c2ccccc2C(F)(F)F)c(=O)[nH]c1=O | inactive
COc1ccc(NC(=S)N2CCN(C(=O)c3ccco3)CC2)cc1OC | inconclusive: 18.5 µM [inhibitor, single point]
CCc1ccc(NC(=O)[C@H](Cc2ccccc2)NC(=O)C2CCN(C(=O)[C@@H](N)CC(C)C)CC2)cc1 | inconclusive: 2.33 µM [inhibitor, full curve]
COc1ccc(S(=O)(=O)N2CCN(CC(=O)Nc3sccc3C(N)=O)CC2)cc1OC | inconclusive: 8.28 µM [inhibitor, partial curve, poor fit]
Cc1cccc(CSc2ccc3nnc(-c4cccnc4)n3n2)c1 | inconclusive: 1.47 µM [inhibitor, single point]

Structure (SMILES) | Potency
O=C(CCCn1ncn2c(cc3occc32)c1=O)NCc1cccc(Cl)c1 | inconclusive: 18.5 µM [inhibitor, single point]
NC(N)=Nc1nc2ccc([N+](=O)[O-])cc2[nH]1 | active: 4.15 µM
CCOC(=O)CCCC(=O)N1CCOCCOCCOCC1 | inactive
Fc1ccccc1NC(=S)N(CCCN1CCOCC1)Cc1cccnc1 | inconclusive: 18.5 µM [inhibitor, single point]
Cn1c(CCN2CCN(c3ccccn3)CC2)nc2cc(NC(=O)COc3ccc(Cl)cc3)ccc21 | inconclusive: 1.65 µM [inhibitor, full curve]
CCn1ccnc1CNCc1ccc(OCC(O)CN(C)Cc2ccccc2)cc1 (configuration not stated) | inactive
O=[N+]([O-])c1ccc(/C=N/N2CCN(Cc3ccccc3)CC2)cc1 | inactive
COc1ccc(-c2nn(-c3ccccc3)cc2C(=O)N2c3ccc(C)cc3C3CN(C)CCC32)cc1 (configuration not stated) | inconclusive: 10.4 µM [inhibitor, single point]
CCOc1ccc(Br)cc1S(=O)(=O)Nc1ccc(Cl)c(S(=O)(=O)N(C)C)c1 | inconclusive: 18.5 µM [inhibitor, single point]
CSc1cc(-c2ccncc2)nc(-c2ccc(Cl)cc2)c1 | active: 14.7 µM
Cc1cccc(NC(=S)NC2CC3CCC(C2)N3Cc2ccco2)c1 (configuration not stated) | inconclusive: 0.0657 µM [inhibitor, full curve, poor fit]
O=C(COc1ccc(-c2nnco2)cc1)NCc1ccccc1Cl | inconclusive: 18.5 µM [inhibitor, single point]
C(=C\c1ccco1)/C=N/n1cnnc1 | inactive
Fc1ccccc1N1CCN(CCCc2ccccc2)CC1 | active: 11.7 µM
COc1cccc(NC(=O)CN(C2=NC3CS(=O)(=O)CC3S2)c2cccc(C)c2)c1 (configuration not stated) | inconclusive: 14.7 µM [inhibitor, single point]
O=C(CSc1nc2sccc2c(=O)[nH]1)N1CCN(c2ccccc2)CC1 | inconclusive: 0.37 µM [inhibitor, partial curve, poor fit]
O=C(c1ccc(-c2ccc(Cl)cc2)o1)N1CCN(c2ccc([N+](=O)[O-])cc2Cl)CC1 | inconclusive: 18.5 µM [inhibitor, single point]
CC(=O)NC(c1cccs1)c1cc(F)c2cccnc2c1O (configuration not stated) | active: 4.65 µM
O=C(c1cccc(S(=O)(=O)N2CCOCC2)c1)N1CCCC1 | inactive
Cc1cccc(OCCN2C(=O)C(=O)c3cccc(C)c32)c1 | inactive
CCc1cc(=O)oc2cc(OCC(=O)NCc3ccccn3)ccc12 | inconclusive: 18.5 µM [inhibitor, single point]
COc1ccc(N2CCOCC2)c(NC(=O)c2cc3ccccc3o2)c1 | inconclusive: 3.7 µM [inhibitor, partial curve, poor fit]
CCCCN(C)CCNC(=O)C(=O)c1c(C)[nH]c2ccccc12 | inconclusive: 0.262 µM [inhibitor, full curve, poor fit]
COCCN(CCOC)C(=O)COC(=O)c1ccc(Cl)c(S(=O)(=O)N(C)c2ccccc2)c1 | inconclusive: 18.5 µM [inhibitor, single point]

Ordered by molar mass (ascending): three of the compounds above
Structure (SMILES) | Potency
Cc1ccc2nsnc2c1S(=O)(=O)N1CCN(C)CC1 | inactive
O=[N+]([O-])c1ccc(/C=N/N2CCN(Cc3ccccc3)CC2)cc1 | inactive
O=C(CSc1nc2sccc2c(=O)[nH]1)N1CCN(c2ccccc2)CC1 | inconclusive: 0.37 µM [inhibitor, partial curve, poor fit]
